In PMC10845952:
Results are given in words; binding and its absence hold for the method and conditions named. Binding seen in cells or lysates may run through a third protein. Here binding means that the protein was enriched with, or labelled near, the bait; the list need not be complete. Tags and fused reporters may be left off the sequences shown.

By UniProt entry, the sequences of proteins in these tests, tags left out. Where a name states a change or a piece, a line headed by the entry shows the natural chain unless it says otherwise. Residues count along the entry.
UniProt Q8DV07: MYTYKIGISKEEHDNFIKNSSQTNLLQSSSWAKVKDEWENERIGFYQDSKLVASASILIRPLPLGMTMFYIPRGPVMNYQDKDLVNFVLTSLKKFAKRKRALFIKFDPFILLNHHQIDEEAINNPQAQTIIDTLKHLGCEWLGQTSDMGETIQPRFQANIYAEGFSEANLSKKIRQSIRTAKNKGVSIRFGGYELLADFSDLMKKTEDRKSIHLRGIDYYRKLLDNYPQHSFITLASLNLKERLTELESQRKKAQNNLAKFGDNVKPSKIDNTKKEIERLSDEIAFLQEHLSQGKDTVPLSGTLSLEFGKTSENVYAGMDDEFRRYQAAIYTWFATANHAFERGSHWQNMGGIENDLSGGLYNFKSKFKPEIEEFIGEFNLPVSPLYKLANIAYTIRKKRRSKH
UniProt P08987, residues 35-1476: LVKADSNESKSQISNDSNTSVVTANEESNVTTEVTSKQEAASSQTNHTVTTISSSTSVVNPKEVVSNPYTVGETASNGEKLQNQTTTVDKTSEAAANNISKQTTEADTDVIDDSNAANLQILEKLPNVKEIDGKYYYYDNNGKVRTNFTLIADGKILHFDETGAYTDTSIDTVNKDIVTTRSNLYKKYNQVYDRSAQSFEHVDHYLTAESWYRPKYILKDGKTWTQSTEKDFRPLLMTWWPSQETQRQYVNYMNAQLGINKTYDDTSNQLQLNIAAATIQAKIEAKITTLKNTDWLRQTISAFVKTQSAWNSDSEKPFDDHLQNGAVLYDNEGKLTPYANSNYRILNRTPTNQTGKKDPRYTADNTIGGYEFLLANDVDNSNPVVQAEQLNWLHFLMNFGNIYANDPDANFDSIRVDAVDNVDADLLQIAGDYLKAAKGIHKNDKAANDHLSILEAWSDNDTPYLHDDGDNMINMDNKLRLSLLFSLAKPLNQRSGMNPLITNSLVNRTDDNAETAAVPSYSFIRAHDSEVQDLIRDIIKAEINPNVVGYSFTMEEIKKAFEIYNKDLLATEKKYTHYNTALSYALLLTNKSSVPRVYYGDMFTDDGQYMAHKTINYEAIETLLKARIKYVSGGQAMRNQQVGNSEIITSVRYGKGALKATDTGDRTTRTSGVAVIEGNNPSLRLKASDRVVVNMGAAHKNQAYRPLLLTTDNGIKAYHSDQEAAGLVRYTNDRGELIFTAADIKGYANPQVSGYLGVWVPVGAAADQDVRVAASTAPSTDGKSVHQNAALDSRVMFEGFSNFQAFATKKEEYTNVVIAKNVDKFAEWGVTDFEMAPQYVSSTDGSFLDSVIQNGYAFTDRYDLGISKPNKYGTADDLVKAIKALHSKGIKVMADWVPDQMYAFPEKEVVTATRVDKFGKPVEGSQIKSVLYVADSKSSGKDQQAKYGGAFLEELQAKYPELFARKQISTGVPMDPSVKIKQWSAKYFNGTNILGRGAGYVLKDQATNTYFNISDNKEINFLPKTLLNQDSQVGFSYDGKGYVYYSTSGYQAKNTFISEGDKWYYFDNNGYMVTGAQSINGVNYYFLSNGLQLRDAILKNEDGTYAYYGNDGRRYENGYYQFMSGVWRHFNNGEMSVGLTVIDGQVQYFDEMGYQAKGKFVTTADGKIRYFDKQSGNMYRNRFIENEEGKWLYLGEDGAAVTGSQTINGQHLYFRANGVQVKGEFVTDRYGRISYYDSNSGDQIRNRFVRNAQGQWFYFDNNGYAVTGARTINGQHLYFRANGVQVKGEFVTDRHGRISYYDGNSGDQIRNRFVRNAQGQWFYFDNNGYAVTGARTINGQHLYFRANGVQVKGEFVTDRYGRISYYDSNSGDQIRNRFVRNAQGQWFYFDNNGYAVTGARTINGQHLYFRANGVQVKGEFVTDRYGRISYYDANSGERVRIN
UniProt Q8DVD0: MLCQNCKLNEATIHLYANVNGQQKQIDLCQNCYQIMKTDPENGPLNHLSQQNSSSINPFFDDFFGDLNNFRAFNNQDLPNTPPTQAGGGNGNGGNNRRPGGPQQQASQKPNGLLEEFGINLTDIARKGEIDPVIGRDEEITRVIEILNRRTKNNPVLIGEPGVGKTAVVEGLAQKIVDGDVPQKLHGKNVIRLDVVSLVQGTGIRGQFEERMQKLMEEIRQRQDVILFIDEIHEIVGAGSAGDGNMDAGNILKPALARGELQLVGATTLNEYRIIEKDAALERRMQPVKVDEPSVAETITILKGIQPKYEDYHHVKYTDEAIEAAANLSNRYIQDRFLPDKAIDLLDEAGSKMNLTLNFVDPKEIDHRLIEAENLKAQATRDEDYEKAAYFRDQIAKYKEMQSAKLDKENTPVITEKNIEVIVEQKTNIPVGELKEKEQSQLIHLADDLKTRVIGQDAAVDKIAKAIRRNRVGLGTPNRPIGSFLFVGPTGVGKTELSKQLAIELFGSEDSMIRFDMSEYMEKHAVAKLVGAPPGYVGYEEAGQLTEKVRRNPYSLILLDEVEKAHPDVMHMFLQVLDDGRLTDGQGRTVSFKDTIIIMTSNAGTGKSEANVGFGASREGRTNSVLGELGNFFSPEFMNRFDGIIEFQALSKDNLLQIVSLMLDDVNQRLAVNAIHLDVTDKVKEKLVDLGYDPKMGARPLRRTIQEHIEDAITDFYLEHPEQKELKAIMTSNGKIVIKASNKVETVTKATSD
UniProt Q8DTQ2: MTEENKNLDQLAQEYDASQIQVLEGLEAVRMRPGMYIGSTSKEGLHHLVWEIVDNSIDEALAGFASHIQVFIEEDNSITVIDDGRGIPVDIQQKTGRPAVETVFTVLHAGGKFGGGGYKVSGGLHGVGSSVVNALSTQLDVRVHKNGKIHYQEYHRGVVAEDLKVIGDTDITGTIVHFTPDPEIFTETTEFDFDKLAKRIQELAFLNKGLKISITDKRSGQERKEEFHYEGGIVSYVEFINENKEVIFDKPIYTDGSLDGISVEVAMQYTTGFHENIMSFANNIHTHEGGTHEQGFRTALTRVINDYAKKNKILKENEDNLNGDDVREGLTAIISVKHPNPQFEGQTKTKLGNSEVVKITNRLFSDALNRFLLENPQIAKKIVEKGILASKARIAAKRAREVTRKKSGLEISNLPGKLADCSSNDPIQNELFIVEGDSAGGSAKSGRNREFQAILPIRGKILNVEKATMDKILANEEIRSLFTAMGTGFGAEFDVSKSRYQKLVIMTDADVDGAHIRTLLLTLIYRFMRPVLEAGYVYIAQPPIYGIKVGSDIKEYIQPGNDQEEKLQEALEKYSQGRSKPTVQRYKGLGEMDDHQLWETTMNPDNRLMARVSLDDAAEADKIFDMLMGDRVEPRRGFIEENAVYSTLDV
UniProt Q59931: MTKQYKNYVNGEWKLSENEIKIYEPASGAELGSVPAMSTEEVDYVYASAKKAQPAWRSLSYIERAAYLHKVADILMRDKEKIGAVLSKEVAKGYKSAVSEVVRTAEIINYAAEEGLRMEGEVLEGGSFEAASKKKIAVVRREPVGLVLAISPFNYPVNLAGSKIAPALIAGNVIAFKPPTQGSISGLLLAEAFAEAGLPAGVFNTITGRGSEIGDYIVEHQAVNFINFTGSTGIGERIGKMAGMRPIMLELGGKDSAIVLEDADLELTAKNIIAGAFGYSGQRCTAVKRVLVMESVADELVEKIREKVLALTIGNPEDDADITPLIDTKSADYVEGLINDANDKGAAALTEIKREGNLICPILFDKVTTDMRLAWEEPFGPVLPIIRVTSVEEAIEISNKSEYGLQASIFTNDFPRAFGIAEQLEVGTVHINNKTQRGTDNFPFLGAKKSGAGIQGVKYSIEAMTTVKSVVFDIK
UniProt Q8DS05: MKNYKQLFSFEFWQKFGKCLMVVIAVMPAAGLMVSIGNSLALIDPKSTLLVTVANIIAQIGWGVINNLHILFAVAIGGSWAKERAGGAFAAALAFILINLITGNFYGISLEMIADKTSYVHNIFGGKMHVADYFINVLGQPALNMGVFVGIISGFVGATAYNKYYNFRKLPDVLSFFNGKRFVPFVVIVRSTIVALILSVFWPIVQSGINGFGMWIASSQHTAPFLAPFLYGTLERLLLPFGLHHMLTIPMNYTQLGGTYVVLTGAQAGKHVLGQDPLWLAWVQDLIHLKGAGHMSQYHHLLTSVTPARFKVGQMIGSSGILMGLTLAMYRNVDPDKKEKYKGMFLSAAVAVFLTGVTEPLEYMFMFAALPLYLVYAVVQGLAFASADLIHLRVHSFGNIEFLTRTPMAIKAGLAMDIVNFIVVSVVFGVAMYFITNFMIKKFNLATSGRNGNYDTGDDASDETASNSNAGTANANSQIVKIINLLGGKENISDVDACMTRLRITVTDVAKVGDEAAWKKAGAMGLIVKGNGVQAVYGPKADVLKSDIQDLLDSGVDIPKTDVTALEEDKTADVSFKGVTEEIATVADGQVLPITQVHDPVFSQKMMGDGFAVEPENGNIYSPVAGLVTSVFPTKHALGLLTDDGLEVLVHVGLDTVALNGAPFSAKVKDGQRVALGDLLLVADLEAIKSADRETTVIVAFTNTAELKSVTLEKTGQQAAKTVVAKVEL
UniProt Q8DW25: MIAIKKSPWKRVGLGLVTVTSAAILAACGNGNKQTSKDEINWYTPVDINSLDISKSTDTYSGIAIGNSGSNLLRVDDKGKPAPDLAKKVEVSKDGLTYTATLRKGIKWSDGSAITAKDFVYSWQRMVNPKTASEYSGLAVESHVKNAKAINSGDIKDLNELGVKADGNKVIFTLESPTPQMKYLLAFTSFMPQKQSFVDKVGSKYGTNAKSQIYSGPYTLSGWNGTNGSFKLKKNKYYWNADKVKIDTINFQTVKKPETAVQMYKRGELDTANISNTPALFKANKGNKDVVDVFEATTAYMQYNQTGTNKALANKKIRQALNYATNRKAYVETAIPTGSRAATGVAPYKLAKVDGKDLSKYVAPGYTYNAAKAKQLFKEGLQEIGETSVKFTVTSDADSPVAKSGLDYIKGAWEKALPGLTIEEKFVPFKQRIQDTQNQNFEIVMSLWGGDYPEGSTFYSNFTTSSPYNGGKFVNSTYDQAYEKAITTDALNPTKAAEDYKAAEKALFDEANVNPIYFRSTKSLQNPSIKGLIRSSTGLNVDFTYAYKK
UniProt Q8DWH9: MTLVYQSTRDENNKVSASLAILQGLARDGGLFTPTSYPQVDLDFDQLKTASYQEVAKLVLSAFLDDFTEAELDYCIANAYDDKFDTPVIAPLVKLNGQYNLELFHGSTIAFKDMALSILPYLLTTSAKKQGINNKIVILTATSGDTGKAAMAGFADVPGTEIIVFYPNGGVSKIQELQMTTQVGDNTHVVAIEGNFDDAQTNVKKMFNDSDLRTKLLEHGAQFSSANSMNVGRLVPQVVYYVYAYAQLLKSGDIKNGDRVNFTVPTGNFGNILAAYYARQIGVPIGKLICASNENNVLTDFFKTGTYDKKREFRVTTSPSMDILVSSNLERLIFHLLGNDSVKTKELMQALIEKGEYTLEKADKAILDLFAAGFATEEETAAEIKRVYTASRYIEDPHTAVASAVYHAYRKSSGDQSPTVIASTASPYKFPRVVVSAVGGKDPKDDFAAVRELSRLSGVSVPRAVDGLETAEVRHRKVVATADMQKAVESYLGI
UniProt Q8DUD3: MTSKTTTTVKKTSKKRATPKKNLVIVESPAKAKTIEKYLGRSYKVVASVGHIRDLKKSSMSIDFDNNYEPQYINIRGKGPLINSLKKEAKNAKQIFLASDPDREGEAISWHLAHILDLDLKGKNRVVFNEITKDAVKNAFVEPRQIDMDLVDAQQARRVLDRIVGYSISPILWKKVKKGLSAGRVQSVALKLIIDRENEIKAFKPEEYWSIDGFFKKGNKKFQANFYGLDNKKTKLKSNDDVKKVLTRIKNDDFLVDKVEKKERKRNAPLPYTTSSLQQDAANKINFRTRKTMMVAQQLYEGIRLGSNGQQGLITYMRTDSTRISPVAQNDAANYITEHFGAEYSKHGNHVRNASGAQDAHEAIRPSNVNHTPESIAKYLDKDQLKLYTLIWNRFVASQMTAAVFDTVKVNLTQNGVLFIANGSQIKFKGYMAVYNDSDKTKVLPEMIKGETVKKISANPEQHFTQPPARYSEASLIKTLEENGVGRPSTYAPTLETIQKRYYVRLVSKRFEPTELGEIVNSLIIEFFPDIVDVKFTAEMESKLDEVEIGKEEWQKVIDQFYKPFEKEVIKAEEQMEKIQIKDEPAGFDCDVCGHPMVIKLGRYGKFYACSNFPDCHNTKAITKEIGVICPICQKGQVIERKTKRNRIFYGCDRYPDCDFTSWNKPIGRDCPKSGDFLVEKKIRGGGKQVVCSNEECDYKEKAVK

Biological target: T1, MecA with C-terminal tandem affinity purification (TAP) tag (3x HA + FLAG) (S. mutans) (UniProt Q8DW33)
T1 sequence: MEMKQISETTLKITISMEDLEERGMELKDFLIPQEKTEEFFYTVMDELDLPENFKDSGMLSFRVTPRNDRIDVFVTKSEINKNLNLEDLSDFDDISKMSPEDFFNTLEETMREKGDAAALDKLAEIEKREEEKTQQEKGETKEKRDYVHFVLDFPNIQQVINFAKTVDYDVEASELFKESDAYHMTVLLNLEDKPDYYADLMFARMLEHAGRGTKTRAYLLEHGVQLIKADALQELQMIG
Assay: affinity purification with mass spectrometry

| Substance | binding |
| --- | --- |
| Aminoacyltransferase, MurM (from UniProt Q8DV07 1-404) | binds |
| Glucosyltransferase-I, GtfB (from UniProt P08987 35-1476) | binds |
| Glucosyltransferase-SI, GtfC (from UniProt P13470 35-1455) | binds |

Biological target: T1, MecA with C-terminal tandem affinity purification (TAP) tag (3x HA + FLAG) (S. mutans)
Assay: affinity purification with mass spectrometry; MecA with C-terminal TAP tag (3x HA + FLAG) as bait; S. mutans grown to mid-logarithmic phase, formaldehyde crosslinked; anti-FLAG affinity resin, then anti-HA affinity resin; LC-MS/MS; three experiments; >=2-fold enrichment of spectral counts over the untagged wild type

| Substance | binding |
| --- | --- |
| ATP-dependent Clp protease ATP-binding subunit, ClpE (from UniProt Q8DVD0 1-753) | binds |
| Autolysin (S. mutans (endogenous in UA159)) | binds |
| DNA topoisomerase (ATP-hydrolyzing) subunit B, GyrB (from UniProt Q8DTQ2 1-650) | binds |
| DNA topoisomerase IV subunit B, ParE (from UniProt Q8DTW0 1-649) | binds |
| Glutamate synthase large subunit, GltA (from UniProt Q8CWY9) | binds |
| NADP-dependent glyceraldehyde-3-phosphate dehydrogenase, GapN (from UniProt Q59931 1-475) | binds |
| PTS transporter subunit EIIC, PtsG (from UniProt Q8DS05) | binds |
| Peptide ABC transporter substrate-binding protein, OppA (from UniProt Q8DW25) | binds |
| Threonine synthase, ThrC (from UniProt Q8DWH9) | binds |

Biological target: T1, MecA with C-terminal tandem affinity purification (TAP) tag (3x HA + FLAG) (S. mutans)
Assay: affinity purification with mass spectrom

| Substance | binding |
| --- | --- |
| Type I DNA topoisomerase, TopA (from UniProt Q8DUD3 1-705) | binds |
